Assay results taken from paper PMC10212716.
These are yes or no findings as the source states them, for the method shown. In cells and extracts the contact can be indirect. Some entries that bind do so weakly or less than the wild type. Tags and fused reporters may be left off the sequences shown.

Molecular target: T1, flag-labelled MATN2 (mouse) (UniProt O08746)
T1 sequence: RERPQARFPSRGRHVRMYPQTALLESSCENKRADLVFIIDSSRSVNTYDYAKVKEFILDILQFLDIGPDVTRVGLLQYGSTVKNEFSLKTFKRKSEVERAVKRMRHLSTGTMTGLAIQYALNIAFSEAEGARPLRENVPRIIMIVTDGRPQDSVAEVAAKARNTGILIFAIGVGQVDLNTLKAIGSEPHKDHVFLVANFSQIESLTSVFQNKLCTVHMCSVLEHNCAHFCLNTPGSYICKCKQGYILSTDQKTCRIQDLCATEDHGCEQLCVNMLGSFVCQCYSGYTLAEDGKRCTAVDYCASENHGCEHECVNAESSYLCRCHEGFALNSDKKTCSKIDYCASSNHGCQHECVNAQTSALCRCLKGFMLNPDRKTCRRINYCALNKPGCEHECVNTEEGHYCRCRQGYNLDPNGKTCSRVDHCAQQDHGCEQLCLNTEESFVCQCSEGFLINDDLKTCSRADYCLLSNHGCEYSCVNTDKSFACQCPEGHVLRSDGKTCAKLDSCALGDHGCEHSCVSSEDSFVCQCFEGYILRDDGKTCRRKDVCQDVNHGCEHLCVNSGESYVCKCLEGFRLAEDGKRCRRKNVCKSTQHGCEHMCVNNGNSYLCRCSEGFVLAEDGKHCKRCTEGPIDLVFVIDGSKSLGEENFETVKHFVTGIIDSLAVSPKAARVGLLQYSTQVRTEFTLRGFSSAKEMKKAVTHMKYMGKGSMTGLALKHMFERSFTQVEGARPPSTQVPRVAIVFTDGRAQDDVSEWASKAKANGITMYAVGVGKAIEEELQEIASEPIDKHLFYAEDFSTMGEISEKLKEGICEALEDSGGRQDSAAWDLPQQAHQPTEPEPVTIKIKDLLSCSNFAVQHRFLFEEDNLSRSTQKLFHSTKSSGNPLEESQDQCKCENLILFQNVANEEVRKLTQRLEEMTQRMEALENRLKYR
Assay: co-IP; 293FT cells; lysis in RIPA with protease inhibitor cocktail and PMSF; supernatant incubated overnight at 4°C with anti-Flag or anti-HA magnetic beads; western blotting

Q: “HA-labelled EGFR (from UniProt Q01279 25-1210) (receptor)” was tested. Which binding did it give?
A: The binding was “binds”.
